This is an account of results in the supplement of paper PMC4604168 (melanoma cell lines).

Some of the results follow. Many values rest on one well or one pass, so single values are uncertain.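 The apoptosis fraction was the count of cleaved-PARP antibody-stained nuclei relative to all DNA-stained nuclei, imaged in 1,536-well plates. Screening doses were set so most cells survived, and baseline and induced cleaved-PARP levels vary greatly across cell lines.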

The assay deals with SkMel5. The assay can be described thus: cleaved PARP positive nuclei fraction relative to DMSO control; melanoma cells; higher = more apoptosis. The note with it: library dose: low library concentration; 72 h.
As to `O=c1[nH]nc(Sc2ncc([N+](=O)[O-])s2)n1-c1ccc2c(c1)OCCO2` + COc1ccc(COc2ccc(Cc3cnc(N)nc3N)cc2OC)cc1 [GW2580] (first compound 0.2 µM, partner dose 1 µM), the “cleaved PARP positive nuclei fraction” value amounted to 80%.
On to `COc1cc([C@@H]2c3cc4c(cc3[C@@H](O[C@@H]3O[C@@H]5CO[C@@H](C)O[C@H]5[C@H](O)[C@H]3O)[C@H]3COC(=O)[C@H]23)OCO4)cc(OC)c1O` [etoposide] + O=S(=O)(c1ccccc1)N(CC(F)(F)F)c1ccc(C(O)(C(F)(F)F)C(F)(F)F)cc1 [T0901317] (first compound 0.02 µM, partner dose 1.4 µM), for which the “cleaved PARP positive nuclei fraction” value was found to be 165%.
Take `O=c1[nH]nc(Sc2ncc([N+](=O)[O-])s2)n1-c1ccc2c(c1)OCCO2` + O=S(=O)(c1ccccc1)N(CC(F)(F)F)c1ccc(C(O)(C(F)(F)F)C(F)(F)F)cc1 [T0901317] (first compound 0.2 µM, partner dose 1.4 µM): the “cleaved PARP positive nuclei fraction” value turned out to be 77.4%.
`Cc1cc(Nc2cc(N3CCN(C)CC3)nc(Sc3ccc(NC(=O)C4CC4)cc3)n2)n[nH]1` [Tozasertib] + Cn1cncc1[C@@](N)(c1ccc(Cl)cc1)c1ccc2c(c1)c(-c1cccc(Cl)c1)cc(=O)n2C [tipifarnib] (first compound 0.006 µM, partner dose 0.01 µM): the “cleaved PARP positive nuclei fraction” value stood at 107%.
As to `CC[C@]1(O)C[C@H]2CN(CCc3c([nH]c4ccccc34)[C@@](C(=O)OC)(c3cc4c(cc3OC)N(C=O)[C@H]3[C@@](O)(C(=O)OC)[C@H](OC(C)=O)[C@]5(CC)C=CCN6CC[C@]43[C@@H]65)C2)C1` [vincristine] + c1cc(-c2cnn3cc(-c4ccc(OCCN5CCCCC5)cc4)cnc23)ccn1 [Dorsomorphin] (first compound 0.0001 µM, partner dose 0.4 µM), the “cleaved PARP positive nuclei fraction” value was found to be 179%.
For `Cc1ccc(Nc2nccc(N(C)c3ccc4c(C)n(C)nc4c3)n2)cc1S(N)(=O)=O` [Pazopanib] + CN(NC(=O)CC(=O)NN(C)C(=S)c1ccccc1)C(=S)c1ccccc1 [STA4783] (first compound 0.4 µM, partner dose 0.006 µM) the value was 137%; for `Cc1cn(-c2cc(NC(=O)c3ccc(C)c(Nc4nccc(-c5cccnc5)n4)c3)cc(C(F)(F)F)c2)cn1` [nilotinib] + COc1ccc(COc2ccc(Cc3cnc(N)nc3N)cc2OC)cc1 [GW2580] (first compound 0.2 µM, partner dose 1 µM), 75.4%; for `COc1cc([C@@H]2c3cc4c(cc3[C@@H](O[C@@H]3O[C@@H]5CO[C@@H](C)O[C@H]5[C@H](O)[C@H]3O)[C@H]3COC(=O)[C@H]23)OCO4)cc(OC)c1O` [etoposide] + C[C@@H]1CCN(C(=O)CC#N)C[C@@H]1N(C)c1ncnc2[nH]ccc12 [CP690550] (first compound 0.02 µM, partner dose 1 µM), 128%.
With `Cc1cn(-c2cc(NC(=O)c3ccc(C)c(Nc4nccc(-c5cccnc5)n4)c3)cc(C(F)(F)F)c2)cn1` [nilotinib] + Cn1cc(/C=C2\C(=O)Nc3cccnc32)c2ccccc21 [GW441756] (first compound 0.2 µM, partner dose 0.4 µM), the “cleaved PARP positive nuclei fraction” value was 145%.
In the case of `Cc1cn(-c2cc(NC(=O)c3ccc(C)c(Nc4nccc(-c5cccnc5)n4)c3)cc(C(F)(F)F)c2)cn1` [nilotinib] + O=c1cc(-c2cccc3c2Sc2ccccc2S3)oc(N2CCOCC2)c1 [KU55933] (first compound 0.2 µM, partner dose 1 µM), the “cleaved PARP positive nuclei fraction” value came out at 238%.
For `CC[C@]1(O)C[C@H]2CN(CCc3c([nH]c4ccccc34)[C@@](C(=O)OC)(c3cc4c(cc3OC)N(C=O)[C@H]3[C@@](O)(C(=O)OC)[C@H](OC(C)=O)[C@]5(CC)C=CCN6CC[C@]43[C@@H]65)C2)C1` [vincristine] + NC(=O)Nc1cc(-c2cccc(F)c2)sc1C(=O)N[C@H]1CCCNC1 [AZD7762] (first compound 0.0001 µM, partner dose 0.02 µM), the “cleaved PARP positive nuclei fraction” value is 88.9%.
In the case of `CCCCCCCCCCCCCCCCCCOP(=O)([O-])OC1CC[N+](C)(C)CC1` [Perifosine] + COc1ccc2c(c1)CCC1C2CCC2(C)C(NCCCCCCN3C(=O)C=CC3=O)CCC12 [U73122] (first compound 0.4 µM, partner dose 0.4 µM), the “cleaved PARP positive nuclei fraction” value amounted to 81.2%.
